{
  "source": "PubChem BioAssay AID1688",
  "about": "(National Center for Advancing Translational Sciences (NCATS), 2009)",
  "note": "Values joined by “and” are separate entries in the source; they are usually repeats but may differ in a detail not shown here. Equal values may be shown once. About 2,400 (1.1%) of roughly 220,000 compounds were called active. Inconclusive results, whose numbers are uncertain, are shown with a selection of clear calls. The call rests on the fitted dose curve; in most records, active means well fitted inhibition curve with a large enough effect; inconclusive means small, poorly fitted or top-dose-only effect, or effect the other way; inactive means no such curve, though single readings can be large or run the other way. A potency beside an inconclusive call is a rough fit, not a confirmed value. On the % scale 0 is the no-effect control and ±100 the full control effect; potency means the concentration at half of the fitted maximal effect.",
  "data": [
    {"assay": "qHTS Multiplex Assay to Identify Dual Action Probes in a Cell Model of Huntington: Aggregate Formation (GFP); further: nearly all actives have a fitted effect of over 60% in size", "conditions": "PC12 HttQ103-GFP aggregates, Acumen cytometry, 40 h; activity change, negative = inhibition: at 46.1 µM (top of the series) unless noted", "summary_of_the_method": "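Steps: seed 1500 PC12 HTTQ103-GFP cells/well; add tebufenozide, 100 nM final; add compound titration; add ATPLite reagent; quantify GFP aggregates by laser scanning cytometry.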", "values": [
      {"smiles": "O=C(Nc1nc(-c2cccs2)c(C(=O)C(F)(F)F)s1)c1ccccc1", "Potency": "active: 10 µM"},
      {"smiles": "COc1cccc2[nH]c3c(N4CCN(Cc5ccc6c(c5)OCO6)CC4)ncnc3c12", "Potency": "inconclusive: 35.5 µM [inhibitor, single point]"},
      {"smiles": "O=C(O)c1cccc(NC(=O)c2cn(-c3ccccc3)nc2-c2cc3ccccc3o2)c1", "activity change, negative = inhibition": "inactive: 15.3%"},
      {"smiles": "CC(C)c1ccc(O)c(N)c1", "Potency": "inconclusive: 11.2 µM [activator, partial curve]"},
      {"smiles": "Cc1cnccc1CN(C)Cc1nc(Cc2ccccc2Cl)no1", "activity change, negative = inhibition": "inactive: -5.71% [at 9.22 µM]"},
      {"smiles": "Cc1ccccc1NC(=O)c1c(F)c(F)c(F)c(F)c1F", "Potency": "inconclusive: 2.82 µM [inhibitor, single point]"},
      {"smiles": "O=C(Nc1ccccn1)C1(c2ccccc2)CCCC1", "Potency": "inconclusive: 6.31 µM [inhibitor, single point]"},
      {"smiles": "CCC(=O)Nc1ccccc1Sc1ncnc2scc(-c3ccccc3)c12", "Potency": "inconclusive: 3.55 µM [inhibitor, single point]"},
      {"smiles": "O=C(CCCN1C(=O)/C(=C/c2ccccc2)SC1=S)Nc1ccc(O)cc1", "Potency": "inconclusive: 35.5 µM [inhibitor, single point]"},
      {"smiles": "Cc1ccc(NC(=O)Cn2c(C)cc(C)c(C#N)c2=O)c(Cl)c1", "activity change, negative = inhibition": "inactive: 13.4%"},
      {"smiles": "CCCCC(=O)NC(c1ccc([N+](=O)[O-])cc1)c1c(O)ccc2ccccc12", "note": "(centres undefined)", "Potency": "inconclusive: 15.8 µM [inhibitor, single point]"},
      {"smiles": "O=C(/C(C=Nc1cc2c(oc1=O)CCCC2=O)=C(\\O)c1ccccc1)c1ccccc1", "activity change, negative = inhibition": "inactive: -16% [at 9.22 µM]"},
      {"smiles": "CN(C)/C=C/c1onc(-c2c(F)cccc2Cl)c1C#N", "Potency": "inconclusive: 0.794 µM [activator, full curve]"},
      {"smiles": "COc1ccc(N=C2NC(=O)/C(=C\\c3ccco3)S2)cc1", "activity change, negative = inhibition": "inactive: -10%"},
      {"smiles": "CC(=O)c1ccc(NC(=O)CN2C(=O)/C(=C/C=C/c3ccccc3)SC2=S)cc1", "Potency": "inconclusive: 20 µM [activator, single point]"},
      {"smiles": "COc1ccccc1/C=C/C(=O)NCC(=O)N/N=C(\\CCC(=O)O)c1ccccc1", "activity change, negative = inhibition": "inactive: 2.55%"},
      {"smiles": "O=C(c1ccccc1)N1CCC(c2nc(-c3ccc(S(=O)(=O)NCC4CCCO4)cc3)no2)CC1", "note": "(centres undefined)", "Potency": "active: 6.31 µM"},
      {"smiles": "O=C(Nc1ncnc2sc3c(c12)CCC3)c1ccco1", "Potency": "inconclusive: 1 µM [inhibitor, partial curve, poor fit]"},
      {"smiles": "COc1ccccc1/C=C/C(=O)Nc1nc(N)n(-c2ccccc2)n1", "activity change, negative = inhibition": "inactive: 5.44% [at 9.22 µM]"},
      {"smiles": "CC(C)OC(=O)CC(NC(=O)OC(C)(C)C)c1ccccc1", "note": "(centres undefined)", "activity change, negative = inhibition": "inactive: 17.1%"},
      {"smiles": "COc1ccccc1CN(Cc1cc2c(C)ccc(C)c2[nH]c1=O)Cc1nnnn1Cc1ccco1", "Potency": "inconclusive: 12.6 µM [inhibitor, partial curve]"},
      {"smiles": "O=C(c1ccc(Cn2c(=S)[nH]c3ccc(Br)cc3c2=O)cc1)N1CCN(C2CCCCC2)CC1", "Potency": "inconclusive: 22.4 µM [inhibitor, single point]"},
      {"smiles": "O=C(Nc1cccc(Cl)c1)Nc1ccccc1NS(=O)(=O)c1cccs1", "Potency": "active: 11.2 µM"},
      {"smiles": "CCCc1c(CC)c(=N)c2ccccc2n1C", "Potency": "inconclusive: 35.5 µM [inhibitor, single point]"},
      {"smiles": "COC(=O)c1c(NC(=S)NC(=O)c2ccco2)sc2c1CCCC2", "activity change, negative = inhibition": "inactive: -1%"},
      {"smiles": "COc1ccc(NC(=O)C/C(C)=N/NC(=O)C(=O)Nc2cccc(Cl)c2C)c(OC)c1", "Potency": "inconclusive: 35.5 µM [inhibitor, single point]"},
      {"smiles": "Cc1ccccc1C(=O)N1CCN(c2ccc(NC(=O)c3cccnc3)cc2)CC1", "Potency": "inconclusive: 0.398 µM [inhibitor, full curve, poor fit]"},
      {"smiles": "Cc1cc(C(=O)N/N=C/c2cc(Cl)cc([N+](=O)[O-])c2O)c2ccccc2n1", "Potency": "active: 15.8 µM"},
      {"smiles": "O=C(CSc1ncn[nH]1)N1CCOCC1", "activity change, negative = inhibition": "inactive: 22.3% [at 9.22 µM]"},
      {"smiles": "O=C(NCc1cccnc1)c1ccc(COc2ccc3c(c2)CCC3)o1", "Potency": "active: 8.91 µM"},
      {"smiles": "CCOC(=O)Cc1csc(CC(N)=O)n1", "activity change, negative = inhibition": "inactive: -19.7% [at 9.22 µM]"},
      {"smiles": "COc1nc(NC2CCCCC2)nc(N2CCCCCC2)n1", "Potency": "inconclusive: 35.5 µM [inhibitor, single point]"},
      {"smiles": "CCOC(=O)c1cc2c(ccn2C)n1CC(=O)N1CCC(Cc2ccccc2)CC1", "Potency": "inconclusive: 22.4 µM [inhibitor, single point]"},
      {"smiles": "COc1ccc(/C=N/Nc2nnc(-c3ncc[nH]3)c3ccccc23)cc1", "Potency": "inconclusive: 35.5 µM [inhibitor, single point]"},
      {"smiles": "C=CCn1c(Oc2cc(C)ccc2C)nc2c1c(=O)n(C)c(=O)n2C", "Potency": "inconclusive: 35.5 µM [inhibitor, single point]"},
      {"smiles": "CC1(C)CC(=O)C2=C(C1)NC(SCC(N)=O)=C(C#N)C21CCCCC1", "activity change, negative = inhibition": "inactive: -0.107%"},
      {"smiles": "O=C(NC1CCCCC1)C(c1ccc2ncccc2c1)N(Cc1cccs1)C(=O)c1cccs1", "note": "(centres undefined)", "Potency": "inconclusive: 15.8 µM [inhibitor, single point]"},
      {"smiles": "Cc1ccc(N2C(=O)C3C4C=CC(CNC(=S)N5CCN(c6ccccn6)CC5)(O4)C3C2=O)cc1", "note": "(centres undefined)", "Potency": "inconclusive: 25.1 µM [inhibitor, single point]"},
      {"smiles": "CC1CCCN(S(=O)(=O)c2ccc(C(=O)Nc3nnc(-c4ccccc4Cl)o3)cc2)C1", "note": "(centres undefined)", "Potency": "inconclusive: 3.55 µM [inhibitor, full curve, poor fit]"},
      {"smiles": "COc1cc(N2C(=O)C=CC2=O)c(OC)cc1Cl", "activity change, negative = inhibition": "inactive: -10.7% [at 9.22 µM]"},
      {"smiles": "Cc1cc(C)nc(N/N=C/c2cccc3ccccc23)n1", "Potency": "inconclusive: 12.6 µM [inhibitor, partial curve]"},
      {"smiles": "Cc1ccc(C(=O)C[n+]2cc(-c3ccccc3)n3c2CCCCC3)cc1", "Potency": "inconclusive: 631 nM [inhibitor, full curve] and inconclusive: 7.94 µM [inhibitor, partial curve]"},
      {"smiles": "COc1ccc(/C=N/Nc2nnc(-c3ccccc3)c(=O)[nH]2)cc1", "Potency": "inconclusive: 5.62 µM [inhibitor, single point]"},
      {"smiles": "CCS(=O)(=O)CCSc1nc2ccccc2o1", "activity change, negative = inhibition": "inactive: 0.249%"}
    ]}
  ]
}
